No constants are given. Whether binding was seen depends on the method and setting. Binding seen in cells or lysates may run through a third protein. Some binding calls cover weakened binding; strength is not graded here.
B1: myocardin (endogenous, A7r5 cells) (protein, UniProt Q8R5I7 1-938)
chain: MTLLGSEHSLLIRRKFRSVLQLRLQQRRTQEQLANQGLIPPLKSPTEFHDPRKKLDSAKTEDSLRRKVRNRSDRASLVNMHILQASTAERSIPTAQMKLKRARLADDLNEKIALRPGPLELVEKNILPMDSSVKEAIKGTEVSLSKAADAFAFEDDSSRDGLSPDQARSEDPQGSGGSTPDIKSTEAPLAGPLDTIQDLTPGSESDKNDTASQLSNQSDSGKQVLGPLSTPIPVHTAVKSKSLGDSKNRHKKPKDPKPKVKKLKYHQYIPPDQKAEKSPPPMDSAYARLLQQQQLFLQLQILSQQQQQQQQQQQQQQQQQQQQRFSYPGMHQAHLKEPNEQMTRNPNSSSTPLNNTPLSPVKNSLSGQTGVSSLKPGPLPPNLDDLKVSELRQQLRIRGLPVSGTKTALVDRLRPFQDCAGNPVPNFGDITTVTFPVTPNTLPSYQSSPSGFYHFGSTSSSPPISPASSDLSAAGSLPDTFTDASPGFGLHASPVPACTDESLLSSLNGGSGPSEPDGLDSEKDKMLVEKQKVINQLTWKLRQEQRQVEELRMQLQKQKSGCNDQKPLPFLATTIKQEDVSSCPFAAQQASGKGQGHSSDSPPPACETAQLLPHCVESSGQTHVLSSTFLSPQCSPQHSPLGTLKSPQHISLPPSPNNHYFLASSSGAQRENHGVSSPNSSQGCAQMTGLQSSDKVGPTFSIPSPTFPKSSPTVPEITQPPSYEDAVKQQMTRSQQMDELLDVLIESGEMPADAREDHSCLQKIPKIPGSSCSPTTILPKSSASFEQASSGGQISFDHYATDSEEHLEVLLNSHSPIGKVSDVTLLKIGSEEPPFDGIMDGFPGKAAEDLFSAHELLPGPLSPMHTQLSPPSVDSSGLQLSFTESPWETMEWLDLTPPSSTPGFSNLTSSGPSIFNIDFLDVTDLNLNSPMDLHLQQW

By UniProt entry, the sequences of proteins in these tests, tags left out.
UniProt P09874: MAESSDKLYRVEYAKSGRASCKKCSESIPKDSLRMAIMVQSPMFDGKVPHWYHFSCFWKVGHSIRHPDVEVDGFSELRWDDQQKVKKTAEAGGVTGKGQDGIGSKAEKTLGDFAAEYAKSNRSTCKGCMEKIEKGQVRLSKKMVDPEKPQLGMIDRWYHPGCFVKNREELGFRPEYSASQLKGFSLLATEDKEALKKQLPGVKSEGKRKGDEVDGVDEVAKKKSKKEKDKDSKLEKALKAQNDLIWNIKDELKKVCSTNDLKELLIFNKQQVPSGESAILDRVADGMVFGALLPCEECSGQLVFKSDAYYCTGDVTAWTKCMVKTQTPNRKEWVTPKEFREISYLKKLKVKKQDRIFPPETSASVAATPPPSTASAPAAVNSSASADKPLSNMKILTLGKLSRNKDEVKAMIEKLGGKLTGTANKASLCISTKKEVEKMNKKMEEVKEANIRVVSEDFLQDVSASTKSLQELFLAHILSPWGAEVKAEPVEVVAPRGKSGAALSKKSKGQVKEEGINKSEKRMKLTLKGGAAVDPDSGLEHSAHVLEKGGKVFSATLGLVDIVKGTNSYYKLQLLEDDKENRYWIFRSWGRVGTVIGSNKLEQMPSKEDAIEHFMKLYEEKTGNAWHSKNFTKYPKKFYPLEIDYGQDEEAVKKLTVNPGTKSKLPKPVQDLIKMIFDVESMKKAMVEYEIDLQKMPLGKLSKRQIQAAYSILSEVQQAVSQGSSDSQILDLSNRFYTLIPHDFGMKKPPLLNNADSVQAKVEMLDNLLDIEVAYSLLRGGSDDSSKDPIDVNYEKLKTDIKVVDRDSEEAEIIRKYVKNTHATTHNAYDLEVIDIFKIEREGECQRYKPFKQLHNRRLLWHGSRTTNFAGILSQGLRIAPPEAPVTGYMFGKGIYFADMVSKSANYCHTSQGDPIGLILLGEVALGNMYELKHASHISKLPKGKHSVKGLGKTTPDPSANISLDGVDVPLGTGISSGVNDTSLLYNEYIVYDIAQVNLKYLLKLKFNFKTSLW
UniProt P27008: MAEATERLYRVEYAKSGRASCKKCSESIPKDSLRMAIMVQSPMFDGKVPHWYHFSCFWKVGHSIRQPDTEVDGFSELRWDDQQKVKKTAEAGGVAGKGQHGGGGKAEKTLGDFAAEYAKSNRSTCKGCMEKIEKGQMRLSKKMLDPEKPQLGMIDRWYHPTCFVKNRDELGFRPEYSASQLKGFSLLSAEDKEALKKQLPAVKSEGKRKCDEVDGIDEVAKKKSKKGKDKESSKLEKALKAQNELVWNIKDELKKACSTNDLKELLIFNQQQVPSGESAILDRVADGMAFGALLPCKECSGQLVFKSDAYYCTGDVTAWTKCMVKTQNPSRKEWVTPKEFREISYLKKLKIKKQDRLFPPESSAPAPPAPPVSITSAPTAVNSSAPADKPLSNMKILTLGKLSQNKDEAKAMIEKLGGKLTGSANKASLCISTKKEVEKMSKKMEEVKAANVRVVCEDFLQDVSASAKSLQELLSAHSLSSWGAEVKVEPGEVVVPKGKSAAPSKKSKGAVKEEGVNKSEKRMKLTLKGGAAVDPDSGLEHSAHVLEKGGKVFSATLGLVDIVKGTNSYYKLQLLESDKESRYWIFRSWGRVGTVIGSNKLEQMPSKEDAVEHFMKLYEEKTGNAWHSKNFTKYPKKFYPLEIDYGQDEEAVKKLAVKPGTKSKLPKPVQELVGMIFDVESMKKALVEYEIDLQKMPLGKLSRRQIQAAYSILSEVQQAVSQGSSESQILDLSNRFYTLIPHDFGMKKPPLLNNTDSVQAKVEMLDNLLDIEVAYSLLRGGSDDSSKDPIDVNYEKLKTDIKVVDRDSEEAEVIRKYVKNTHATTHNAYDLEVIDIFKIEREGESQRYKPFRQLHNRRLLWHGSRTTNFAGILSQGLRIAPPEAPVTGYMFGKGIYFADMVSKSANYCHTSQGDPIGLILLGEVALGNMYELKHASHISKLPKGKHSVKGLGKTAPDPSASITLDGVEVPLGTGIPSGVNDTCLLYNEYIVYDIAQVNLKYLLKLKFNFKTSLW
UniProt P05412: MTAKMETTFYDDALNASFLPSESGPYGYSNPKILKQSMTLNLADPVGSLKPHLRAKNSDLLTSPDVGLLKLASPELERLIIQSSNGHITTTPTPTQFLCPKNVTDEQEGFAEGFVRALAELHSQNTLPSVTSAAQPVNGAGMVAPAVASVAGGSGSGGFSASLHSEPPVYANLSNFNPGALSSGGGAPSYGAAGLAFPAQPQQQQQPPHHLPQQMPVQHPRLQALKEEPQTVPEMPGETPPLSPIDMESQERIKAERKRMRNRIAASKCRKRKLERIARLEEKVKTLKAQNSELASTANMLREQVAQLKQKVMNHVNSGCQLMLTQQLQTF

Legend:
[1] = molecular target: PARP1 (endogenous, T/G HA-VSMC) (human (endogenous in T/G HA-VSMC)) (UniProt P09874); test: co-IP; nuclear extracts of T/G HA-VSMCs infected with Flag-myocardin adenovirus; 300 µg extract, antibody at 4 °C overnight, protein-A/G agarose, washed three times with RIPA lysis buffer; unspecific IgG as control; also with Ad-PARP1 or Ad-mut-PARP1 infection
[2] = molecular target: PARP1 (endogenous, A7r5 cells) (rat (endogenous in A7r5)) (UniProt P27008); test: co-IP; A7r5 cells infected with Ad-myocardin shRNA or Ad-SRF shRNA; PARP1-bound SRF and myocardin detected

Molecule | binding [1] | binding [2]
c-Jun (endogenous, T/G HA-VSMC) (from UniProt P05412 1-331) | binds | 
B1 |  | binds

— article PMC12411612
